In this assay the target is glutamate dehydrogenase (GDH) (human (endogenous in lymphoblasts)) (UniProt P00367). Description: co-IP; GDH immunoprecipitated from 300 ug lymphoblast mitochondrial lysate with 1 ug rabbit polyclonal GDH antibody and protein A sepharose; blot probed with mouse monoclonal antibody to HADH.

The chains behind the UniProt entries cited, without tags or fusion partners. Residues count along the entry.
UniProt P00367, residues 54-558: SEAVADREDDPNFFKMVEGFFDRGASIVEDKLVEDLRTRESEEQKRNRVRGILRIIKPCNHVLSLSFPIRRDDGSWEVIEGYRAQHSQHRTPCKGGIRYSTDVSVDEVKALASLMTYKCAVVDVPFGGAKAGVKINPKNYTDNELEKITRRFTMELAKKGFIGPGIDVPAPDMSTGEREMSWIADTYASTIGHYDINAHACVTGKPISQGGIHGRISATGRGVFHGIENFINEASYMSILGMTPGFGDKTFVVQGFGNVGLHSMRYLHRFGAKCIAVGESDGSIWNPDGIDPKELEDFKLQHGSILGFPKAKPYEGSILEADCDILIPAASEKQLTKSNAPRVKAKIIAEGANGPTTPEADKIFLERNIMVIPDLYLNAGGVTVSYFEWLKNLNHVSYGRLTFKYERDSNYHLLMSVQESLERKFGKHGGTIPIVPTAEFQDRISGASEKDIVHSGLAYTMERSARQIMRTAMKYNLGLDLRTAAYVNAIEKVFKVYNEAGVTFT

No constants are given. Whether binding was seen depends on the method and setting. Binding seen in cells or lysates may run through a third protein. Some entries that bind do so weakly or less than the wild type.

B1: 3-hydroxyacyl-CoA dehydrogenase (HADH) (enzyme, UniProt Q16836 13-314)
chain: SSSSTASASAKKIIVKHVTVIGGGLMGAGIAQVAAATGHTVVLVDQTEDILAKSKKGIEESLRKVAKKKFAENLKAGDEFVEKTLSTIATSTDAASVVHSTDLVVEAIVENLKVKNELFKRLDKFAAEHTIFASNTSSLQITSIANATTRQDRFAGLHFFNPVPVMKLVEVIKTPMTSQKTFESLVDFSKALGKHPVSCKDTPGFIVNRLLVPYLMEAIRLYERGDASKEDIDTAMKLGAGYPMGPFELLDYVGLDTTKFIVDGWHEMDAENPLHQPSPSLNKLVAENKFGKKTGEGFYKYK
Consider B1, for which the binding result is reported as “binds”.

Values taken from paper PMC3433310.
